Reference: PMC3553376
Results are given in words; binding and its absence hold for the method and conditions named. In cells and extracts the contact can be indirect. Some binding calls cover weakened binding; strength is not graded here.

Chains of the proteins cited; added tags and fusions are not shown.
UniProt P68640: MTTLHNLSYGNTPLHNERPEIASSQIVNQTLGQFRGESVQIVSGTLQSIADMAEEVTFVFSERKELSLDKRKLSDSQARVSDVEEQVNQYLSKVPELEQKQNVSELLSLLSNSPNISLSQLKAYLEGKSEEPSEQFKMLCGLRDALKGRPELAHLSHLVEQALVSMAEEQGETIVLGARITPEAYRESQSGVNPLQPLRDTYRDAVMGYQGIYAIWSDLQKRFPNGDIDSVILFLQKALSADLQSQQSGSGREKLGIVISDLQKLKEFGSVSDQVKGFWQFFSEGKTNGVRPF
UniProt P69968: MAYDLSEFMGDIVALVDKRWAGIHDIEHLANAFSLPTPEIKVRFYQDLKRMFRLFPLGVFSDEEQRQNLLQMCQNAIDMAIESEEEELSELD

Target: YopN-GSK (Y. pestis) (UniProt P68640)
Assay: cross-linking + co-IP

Substance: TyeA (from UniProt P69968 1-92)
- binding: binds
